Measurements published in the supplement of paper PMC6078165.

Tested on: MDAMB468
Assay: relative JC-1 red fluorescence (viability) vs pre-drug, coculture with fibroblast (fraction); higher = more viable cancer cells
Procedure: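 JC-1 labelled TNBC cells cocultured 1:1 (1,500 cells each) with CellTrace Violet stained primary or stromal fibroblasts in 384-well plates in FluoroBrite medium, treated with one of 42 anticancer drugs at 0.1, 1, 10 or 100 uM. JC-1 red fluorescence (mitochondrial integrity in cancer cells only) was read by plate reader every 8 h for 72 h. Values are normalised to each well's pre-drug value. The stock of one drug was tenfold lower, so its dose labels may be too high.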

CCC1=C[C@@H]2CN(C1)Cc1c([nH]c3ccccc13)[C@@](C(=O)OC)(c1cc3c(cc1OC)N(C)[C@H]1[C@@](O)(C(=O)OC)[C@H](OC(C)=O)[C@]4(CC)C=CCN5CC[C@]31[C@@H]54)C2 [Vinorelbine]
relative JC-1 red fluorescence
Settings | 8 h | 16 h | 24 h | 32 h | 40 h | 48 h | 56 h | 64 h | 72 h
0.1 µM, coculture fibroblast: C12385 | 0.8885 | 0.7975 | 0.804 | 0.77 | 0.7427 | 0.7421 | 0.7162 | 0.702 | 0.715
0.1 µM, coculture fibroblast: H6013 | 0.902 | 0.8674 | 0.851 | 0.8566 | 0.844 | 0.8726 | 0.8537 | 0.858 | 0.814
0.1 µM, coculture fibroblast: H6019 | 0.859 | 0.846 | 0.844 | 0.839 | 0.826 | 0.837 | 0.813 | 0.814 | 0.812
0.1 µM, coculture fibroblast: H6076 | 0.975 | 0.954 | 0.942 | 0.944 | 0.866 | 0.856 | 0.8171 | 0.8015 | 0.858
0.1 µM, coculture fibroblast: H6231 | 0.85 | 0.9756 | 0.918 | 0.848 | 0.779 | 0.757 | 0.712 | 0.692 | 0.681
0.1 µM, coculture fibroblast: HADF | 0.9271 | 0.859 | 0.823 | 0.812 | 0.757 | 0.743 | 0.709 | 0.696 | 0.647
0.1 µM, coculture fibroblast: HCFa | 0.893 | 0.865 | 0.829 | 0.812 | 0.77 | 0.764 | 0.72 | 0.685 | 0.628
0.1 µM, coculture fibroblast: HCPF | 0.916 | 0.871 | 0.9172 | 0.912 | 0.823 | 0.784 | 0.728 | 0.706 | 0.679
0.1 µM, coculture fibroblast: HHSteC | 0.941 | 0.901 | 0.872 | 0.862 | 0.823 | 0.83 | 0.7484 | 0.7312 | 0.672
0.1 µM, coculture fibroblast: HMF | 0.878 | 0.963 | 0.93 | 0.914 | 0.842 | 0.815 | 0.756 | 0.7301 | 0.707
0.1 µM, coculture fibroblast: HPFa | 0.9231 | 0.899 | 0.8445 | 0.7931 | 0.7444 | 0.7284 | 0.6702 | 0.649 | 0.587
0.1 µM, coculture fibroblast: HUF | 0.934 | 0.842 | 0.789 | 0.735 | 0.694 | 0.673 | 0.63909 | 0.6241 | 0.604
0.1 µM, coculture fibroblast: Hs5 | 0.809 | 0.975 | 0.958 | 0.948 | 0.874 | 0.85 | 0.813 | 0.78 | 0.811
0.1 µM, coculture fibroblast: Hs27A | 0.919 | 0.873 | 0.858 | 0.856 | 0.804 | 0.788 | 0.763 | 0.752 | 0.707
0.1 µM, coculture fibroblast: Hs343T | 0.913 | 0.9197 | 0.93 | 0.894 | 0.814 | 0.796 | 0.747 | 0.728 | 0.712
0.1 µM, coculture fibroblast: WS1 | 0.876 | 0.7788 | 0.755 | 0.7071 | 0.6707 | 0.638 | 0.6166 | 0.5912 | 0.586
1 µM, coculture fibroblast: C12385 | 0.902 | 0.8723 | 0.831 | 0.788 | 0.748 | 0.736 | 0.693 | 0.669 | 0.661
1 µM, coculture fibroblast: H6013 | 0.899 | 0.916 | 0.8886 | 0.8821 | 0.8643 | 0.8686 | 0.837 | 0.8313 | 0.782
1 µM, coculture fibroblast: H6019 | 0.851 | 0.849 | 0.848 | 0.816 | 0.808 | 0.804 | 0.771 | 0.753 | 0.744
1 µM, coculture fibroblast: H6076 | 0.919 | 0.9687 | 0.93 | 0.9467 | 0.8667 | 0.8503 | 0.8074 | 0.7792 | 0.818
1 µM, coculture fibroblast: H6231 | 0.85001 | 0.964 | 0.866 | 0.845 | 0.79 | 0.77 | 0.724 | 0.695 | 0.678
1 µM, coculture fibroblast: HADF | 0.951 | 0.948 | 0.922 | 0.925 | 0.891 | 0.893 | 0.854 | 0.842 | 0.795
1 µM, coculture fibroblast: HCFa | 0.8831 | 0.911 | 0.869 | 0.852 | 0.812 | 0.808 | 0.758 | 0.726 | 0.668
1 µM, coculture fibroblast: HCPF | 0.886 | 0.9188 | 0.874 | 0.89 | 0.814 | 0.789 | 0.733 | 0.711 | 0.701
1 µM, coculture fibroblast: HHSteC | 0.9441 | 0.924 | 0.906 | 0.88 | 0.844 | 0.839 | 0.766 | 0.736 | 0.682
1 µM, coculture fibroblast: HMF | 0.854 | 0.846 | 0.9435 | 0.9244 | 0.866 | 0.857 | 0.796 | 0.771 | 0.75
1 µM, coculture fibroblast: HPFa | 0.9575 | 0.949 | 0.909 | 0.864 | 0.8525 | 0.8444 | 0.7969 | 0.779 | 0.696
1 µM, coculture fibroblast: HUF | 0.947 | 0.877 | 0.838 | 0.764 | 0.725 | 0.697 | 0.655 | 0.626 | 0.604
1 µM, coculture fibroblast: Hs5 | 0.734 | 0.931 | 0.948 | 0.967 | 0.896 | 0.863 | 0.823 | 0.783 | 0.795
1 µM, coculture fibroblast: Hs27A | 0.9382 | 0.922 | 0.9036 | 0.9103 | 0.87377 | 0.8726 | 0.8401 | 0.8174 | 0.7716
1 µM, coculture fibroblast: Hs343T | 0.8886 | 0.9787 | 0.953 | 0.949 | 0.877 | 0.861 | 0.818 | 0.798 | 0.781
1 µM, coculture fibroblast: WS1 | 0.8928 | 0.8223 | 0.815 | 0.773 | 0.735 | 0.707 | 0.69 | 0.667 | 0.65

The reference is the same well before dosing, and untreated signal decays as well.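 Labels refer to human fibroblasts, largely primary: uterine (C12385, HUF), lung (H6013), bone (Hs27A), adrenal (HADF), skin (WS1), plus mammary HMF and breast cancer-associated Hs343T. Cancer lines are basal-like or mesenchymal-like triple-negative breast cancer. The paper counts as hits responses shifting over 3x the replicate standard deviation. The tissue of the other fibroblasts is not given here.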
